Values of other authors as cited in US7375220B2, “Method of treating diseases and conditions associated with an altered level of amyloid β peptides and new enolcarboxamide compounds” (Boehringer Ingelheim Vetmedica GmbH, priority 2004, dated 2008).
At least one structure is not confirmed: it was looked up by name or label, or the drawing left a doubt.

Tested on: Aβ42
Details: according to table 3 of WO 01/78721; cited from earlier work

## Cc1cnc(NC(=O)C2=C(O)c3ccccc3S(=O)(=O)N2C)s1 [meloxicam]
  Aβ42 level: do not lower or even increase the Aβ42 level
